Measured values: paper PMC3024417

Protein sequences, listed by entry. Tags and fused reporters are not part of them. Lines headed by an entry give the natural chain unless they say otherwise; changes in a name come on top.
UniProt P15311: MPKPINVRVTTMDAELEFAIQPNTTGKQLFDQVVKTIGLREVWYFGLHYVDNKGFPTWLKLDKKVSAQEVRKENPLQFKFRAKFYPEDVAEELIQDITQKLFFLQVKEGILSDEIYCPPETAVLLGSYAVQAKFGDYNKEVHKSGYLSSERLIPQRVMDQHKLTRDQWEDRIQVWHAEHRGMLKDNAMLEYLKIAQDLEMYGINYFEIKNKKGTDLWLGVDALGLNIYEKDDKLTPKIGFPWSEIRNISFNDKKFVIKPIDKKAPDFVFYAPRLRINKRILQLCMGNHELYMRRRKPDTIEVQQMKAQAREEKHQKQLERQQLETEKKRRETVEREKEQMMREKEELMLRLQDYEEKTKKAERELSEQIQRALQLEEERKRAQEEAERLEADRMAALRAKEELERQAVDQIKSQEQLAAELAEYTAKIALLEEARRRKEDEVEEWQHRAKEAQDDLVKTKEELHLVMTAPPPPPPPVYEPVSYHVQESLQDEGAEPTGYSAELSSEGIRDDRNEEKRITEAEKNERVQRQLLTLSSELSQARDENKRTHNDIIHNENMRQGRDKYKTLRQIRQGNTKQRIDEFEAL
UniProt Q13439: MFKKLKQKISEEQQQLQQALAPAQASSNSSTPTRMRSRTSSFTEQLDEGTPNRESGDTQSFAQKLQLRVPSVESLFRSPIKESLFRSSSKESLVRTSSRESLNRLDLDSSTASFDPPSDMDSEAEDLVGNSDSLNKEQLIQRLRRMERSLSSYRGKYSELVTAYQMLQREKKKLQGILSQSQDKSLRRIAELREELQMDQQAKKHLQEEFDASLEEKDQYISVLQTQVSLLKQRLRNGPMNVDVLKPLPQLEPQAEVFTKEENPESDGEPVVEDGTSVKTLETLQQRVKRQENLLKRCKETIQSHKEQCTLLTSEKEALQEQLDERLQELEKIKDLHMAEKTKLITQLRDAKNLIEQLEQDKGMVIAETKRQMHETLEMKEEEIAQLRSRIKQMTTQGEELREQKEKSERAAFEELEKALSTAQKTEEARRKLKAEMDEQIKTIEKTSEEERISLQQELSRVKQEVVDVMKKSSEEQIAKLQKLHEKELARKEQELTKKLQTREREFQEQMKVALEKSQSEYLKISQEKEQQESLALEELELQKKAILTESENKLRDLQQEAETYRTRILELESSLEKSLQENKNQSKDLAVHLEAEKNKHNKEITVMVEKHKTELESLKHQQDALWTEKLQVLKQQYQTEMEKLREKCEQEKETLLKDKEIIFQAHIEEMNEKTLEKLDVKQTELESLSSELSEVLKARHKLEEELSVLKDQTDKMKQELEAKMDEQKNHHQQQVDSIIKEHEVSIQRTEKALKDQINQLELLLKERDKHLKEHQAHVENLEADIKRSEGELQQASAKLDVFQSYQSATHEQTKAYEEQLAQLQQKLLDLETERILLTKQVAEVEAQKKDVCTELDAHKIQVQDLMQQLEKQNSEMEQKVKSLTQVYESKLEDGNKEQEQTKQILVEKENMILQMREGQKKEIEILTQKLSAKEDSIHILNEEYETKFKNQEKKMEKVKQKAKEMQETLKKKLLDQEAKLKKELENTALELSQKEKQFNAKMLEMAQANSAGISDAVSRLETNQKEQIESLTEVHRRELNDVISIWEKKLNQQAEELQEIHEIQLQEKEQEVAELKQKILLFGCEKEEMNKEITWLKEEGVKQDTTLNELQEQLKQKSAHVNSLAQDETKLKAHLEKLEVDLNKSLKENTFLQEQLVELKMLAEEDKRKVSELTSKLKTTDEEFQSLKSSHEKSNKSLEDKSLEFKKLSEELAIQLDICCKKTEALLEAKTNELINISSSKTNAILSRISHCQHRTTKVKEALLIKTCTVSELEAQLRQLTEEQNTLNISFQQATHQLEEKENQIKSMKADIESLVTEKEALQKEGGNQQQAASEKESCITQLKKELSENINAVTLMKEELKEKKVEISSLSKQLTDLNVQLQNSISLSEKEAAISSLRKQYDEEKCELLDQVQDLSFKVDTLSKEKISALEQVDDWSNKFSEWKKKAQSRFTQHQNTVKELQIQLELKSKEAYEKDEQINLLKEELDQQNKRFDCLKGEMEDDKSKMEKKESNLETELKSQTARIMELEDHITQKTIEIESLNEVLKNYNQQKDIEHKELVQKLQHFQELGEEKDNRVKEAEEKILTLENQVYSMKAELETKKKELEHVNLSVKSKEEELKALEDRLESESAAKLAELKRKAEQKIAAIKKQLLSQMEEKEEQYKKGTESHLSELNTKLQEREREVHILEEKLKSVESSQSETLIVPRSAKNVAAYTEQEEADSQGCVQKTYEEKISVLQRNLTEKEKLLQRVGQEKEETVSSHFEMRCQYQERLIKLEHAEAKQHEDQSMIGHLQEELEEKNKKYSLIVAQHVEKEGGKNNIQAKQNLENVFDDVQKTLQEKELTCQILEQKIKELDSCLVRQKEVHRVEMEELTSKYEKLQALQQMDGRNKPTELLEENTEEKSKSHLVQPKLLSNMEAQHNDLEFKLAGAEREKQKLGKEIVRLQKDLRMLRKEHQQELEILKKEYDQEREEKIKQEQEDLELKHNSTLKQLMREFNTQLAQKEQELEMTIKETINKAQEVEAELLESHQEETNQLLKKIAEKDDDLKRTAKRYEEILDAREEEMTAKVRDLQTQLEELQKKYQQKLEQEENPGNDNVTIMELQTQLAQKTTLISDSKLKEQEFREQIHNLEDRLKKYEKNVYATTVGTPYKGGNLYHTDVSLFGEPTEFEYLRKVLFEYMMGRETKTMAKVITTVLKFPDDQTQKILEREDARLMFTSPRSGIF
UniProt O95831: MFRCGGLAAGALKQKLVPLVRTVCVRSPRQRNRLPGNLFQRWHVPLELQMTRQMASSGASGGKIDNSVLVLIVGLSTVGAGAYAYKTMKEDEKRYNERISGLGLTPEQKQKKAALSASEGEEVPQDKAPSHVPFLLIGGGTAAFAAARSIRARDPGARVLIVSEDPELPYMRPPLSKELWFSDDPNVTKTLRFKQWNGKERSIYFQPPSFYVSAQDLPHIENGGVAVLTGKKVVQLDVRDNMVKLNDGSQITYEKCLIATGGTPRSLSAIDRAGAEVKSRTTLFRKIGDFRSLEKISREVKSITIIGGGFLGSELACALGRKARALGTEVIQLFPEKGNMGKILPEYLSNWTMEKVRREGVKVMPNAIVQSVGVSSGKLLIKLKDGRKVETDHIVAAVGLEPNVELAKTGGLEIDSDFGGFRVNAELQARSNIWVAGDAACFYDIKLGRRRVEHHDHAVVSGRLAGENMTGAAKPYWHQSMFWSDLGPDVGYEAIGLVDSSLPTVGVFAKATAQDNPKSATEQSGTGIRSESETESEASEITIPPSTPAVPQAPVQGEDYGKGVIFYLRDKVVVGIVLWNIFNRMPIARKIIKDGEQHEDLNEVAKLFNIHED

T1: p120-catenin (human (endogenous in A431)) (UniProt O60716)
T1 sequence: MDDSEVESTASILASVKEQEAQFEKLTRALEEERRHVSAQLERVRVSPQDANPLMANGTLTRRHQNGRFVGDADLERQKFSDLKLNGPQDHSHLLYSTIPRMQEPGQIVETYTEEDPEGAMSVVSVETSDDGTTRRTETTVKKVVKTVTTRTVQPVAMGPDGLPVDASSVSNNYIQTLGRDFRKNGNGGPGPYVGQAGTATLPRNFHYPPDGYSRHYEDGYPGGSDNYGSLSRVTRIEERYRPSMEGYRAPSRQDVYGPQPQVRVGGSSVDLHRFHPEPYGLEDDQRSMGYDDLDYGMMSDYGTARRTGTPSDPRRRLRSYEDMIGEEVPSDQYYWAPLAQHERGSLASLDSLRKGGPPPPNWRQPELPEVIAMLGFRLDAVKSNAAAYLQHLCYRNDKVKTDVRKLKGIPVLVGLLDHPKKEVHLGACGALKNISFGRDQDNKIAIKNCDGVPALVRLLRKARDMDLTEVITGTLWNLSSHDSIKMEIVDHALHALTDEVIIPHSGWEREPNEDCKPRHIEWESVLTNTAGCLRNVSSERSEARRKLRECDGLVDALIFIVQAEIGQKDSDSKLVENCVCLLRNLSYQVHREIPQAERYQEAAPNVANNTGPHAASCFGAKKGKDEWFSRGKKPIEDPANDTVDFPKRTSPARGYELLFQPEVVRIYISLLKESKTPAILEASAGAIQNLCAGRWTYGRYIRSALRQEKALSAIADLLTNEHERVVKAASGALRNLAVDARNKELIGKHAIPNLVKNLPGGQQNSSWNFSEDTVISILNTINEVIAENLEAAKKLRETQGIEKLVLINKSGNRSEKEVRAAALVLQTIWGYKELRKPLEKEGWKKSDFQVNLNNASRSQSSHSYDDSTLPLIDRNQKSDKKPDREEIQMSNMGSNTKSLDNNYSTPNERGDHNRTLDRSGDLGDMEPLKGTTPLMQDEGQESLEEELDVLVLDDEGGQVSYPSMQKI


What was measured:
[1] = target: T1, p120-catenin (human (endogenous in A431)); test: cross-linking + affinity purification with mass spectrometry; ReCLIP: A431 cells crosslinked with 0.5 mM DSP, DTME or both, RIPA lysis; p120 captured on mAb 15D2 Dynabeads; DTT eluate analysed by LC-MS/MS; control mAb 8D11 beads
[2] = target: T1, p120-catenin (human (endogenous in A431)); test: as above; remark: listed apart in the source

Row | binding [1] | binding [2] | Molecule
1 | binds | – | Villin-2/Ezrin (from UniProt P15311 1-586)
2 | binds | – | E-cadherin (human (endogenous in A431))
3 | binds | – | GOLGA4 (from UniProt Q13439 1-2230)
4 | binds | – | AIFM1 (from UniProt O95831)
5 | – | binds | Plakoglobin (protein, UniProt P14923 1-745) MEVMNLMEQPIKVTEWQQTYTYDSGIHSGANTCVPSVSSKGIMEEDEACGRQYTLKKTTTYTQGVPPSQGDLEYQMSTTARAKRVREAMCPGVSGEDSSLLLATQVEGQATNLQRLAEPSQLLKSAIVHLINYQDDAELATRALPELTKLLNDEDPVVVTKAAMIVNQLSKKEASRRALMGSPQLVAAVVRTMQNTSDLDTARCTTSILHNLSHHREGLLAIFKSGGIPALVRMLSSPVESVLFYAITTLHNLLLYQEGAKMAVRLADGLQKMVPLLNKNNPKFLAITTDCLQLLAYGNQESKLIILANGGPQALVQIMRNYSYEKLLWTTSRVLKVLSVCPSNKPAIVEAGGMQALGKHLTSNSPRLVQNCLWTLRNLSDVATKQEGLESVLKILVNQLSVDDVNVLTCATGTLSNLTCNNSKNKTLVTQNSGVEALIHAILRAGDKDDITEPAVCALRHLTSRHPEAEMAQNSVRLNYGIPAIVKLLNQPNQWPLVKATIGLIRNLALCPANHAPLQEAAVIPRLVQLLVKAHQDAQRHVAAGTQQPYTDGVRMEEIVEGCTGALHILARDPMNRMEIFRLNTIPLFVQLLYSSVENIQRVAAGVLCELAQDKEAADAIDAEGASAPLMELLHSRNEGTATYAAAVLFRISEDKNPDYRKRVSVELTNSLFKHDPAAWEAAQSMIPINEPYGDDMDATYRPMYSSDVPLDPLEMHMDMDGDYPIDTYSDGLRPPYPTADHMLA

Where two headings read alike, the source gives them in different places. These are yes or no findings as the source states them, for the method shown. In cells and extracts the contact can be indirect. These calls come from enrichment with a bait or labelling near it, and not all partners need be listed.
